## Percent effect of library compounds

Chains of the proteins cited; added tags and fusions are not shown. Residues count along the entry.
UniProt Q4DA54, 1-478: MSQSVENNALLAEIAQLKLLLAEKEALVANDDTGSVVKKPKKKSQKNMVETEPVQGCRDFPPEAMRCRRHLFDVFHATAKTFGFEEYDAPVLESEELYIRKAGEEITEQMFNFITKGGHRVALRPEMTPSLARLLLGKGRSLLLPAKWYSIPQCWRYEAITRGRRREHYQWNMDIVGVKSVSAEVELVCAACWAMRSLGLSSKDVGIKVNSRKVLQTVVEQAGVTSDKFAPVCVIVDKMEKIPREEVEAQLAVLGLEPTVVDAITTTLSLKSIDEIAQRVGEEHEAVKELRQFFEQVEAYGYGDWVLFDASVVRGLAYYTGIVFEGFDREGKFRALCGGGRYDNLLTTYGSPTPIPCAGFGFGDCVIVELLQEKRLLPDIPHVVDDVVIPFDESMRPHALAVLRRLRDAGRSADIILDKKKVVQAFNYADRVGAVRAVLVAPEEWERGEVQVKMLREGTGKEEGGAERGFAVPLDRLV
UniProt P9WPC5, whole entry: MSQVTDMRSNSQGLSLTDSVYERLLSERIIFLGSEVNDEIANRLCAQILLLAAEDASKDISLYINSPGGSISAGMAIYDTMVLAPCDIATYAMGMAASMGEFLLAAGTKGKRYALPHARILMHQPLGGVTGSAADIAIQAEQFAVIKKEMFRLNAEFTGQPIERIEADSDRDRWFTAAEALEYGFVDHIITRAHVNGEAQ
UniProt P9WPC3, whole entry partner: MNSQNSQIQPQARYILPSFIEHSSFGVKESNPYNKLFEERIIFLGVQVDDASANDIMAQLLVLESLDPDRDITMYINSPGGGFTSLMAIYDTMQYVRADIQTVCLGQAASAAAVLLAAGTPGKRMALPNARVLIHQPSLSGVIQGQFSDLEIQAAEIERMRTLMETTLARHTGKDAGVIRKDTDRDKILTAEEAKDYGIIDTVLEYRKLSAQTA

Values are the deposited “Percent Effect”, in %.
The record does not define 0% and 100%; most values in the screen are far below 50% and negative numbers occur (in some assays of this library far below -100).
Compounds were drawn at random from those tested, without regard to their results.

A: 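Enzyme assay of histidyl-tRNA synthetase; the read-out is not stated. Target: Histidine-tRNA ligase, Trypanosoma cruzi CL Brener (UniProt Q4DA54). Tested at 30 µM. Higher reads as stronger inhibition (inferred: compounds with an IC50 in retests scored well above the rest). Of about 69,000 compounds tested this way, about 31 (0.045%) reached 50% or more in at least one test.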
B: 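ClpP1P2, Mycobacterium tuberculosis (UniProt P9WPC5 and UniProt P9WPC3). Protease assay of ClpP1P2, read by the AMC dye that it sets free. Tested at 50 µM. Direction is inferred from only a few compounds that gave an IC50; most scored high, so higher reads as stronger inhibition. Most other retested compounds had strongly negative values. Size under these conditions: about 69,000 compounds, about 10 of them at 50% or above in at least one test.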

{"smiles": "Cc1c(NC(=O)CN(C)S(C)(=O)=O)cccc1OC1CCCC1", "A": 4.972, "B": -9.767}
{"smiles": "CCN(C)c1ncnc2c1CCN(C(=O)c1ccccn1)CC2", "A": 3.96, "B": 0.07198}
{"smiles": "O=C(c1cc(F)cc2[nH]cnc12)N1CCCCC1Cn1cccn1", "stereo": "stereo not drawn", "A": 3.333, "B": -2.476}
{"smiles": "O=C(CSc1ccc(Br)cc1)NS(=O)(=O)c1ccc2c(c1)OCCO2", "A": -4.142, "B": -4.789}
{"smiles": "CN(Cc1ccco1)C[C@H]1OC[C@@H]2CCN(Cc3cccs3)C[C@@H]21", "A": 1.622, "B": -18.57}
{"smiles": "Cn1nc(C2CCN(C(=O)CN3CCCCC3)CC2)c2cccnc21", "A": 8.511, "B": 3.794}
{"smiles": "Cc1nn(C)c(N2CCOCC2)c1CNCc1ccc(CO)c(F)c1", "A": 4.373, "B": -31.01}
{"smiles": "CC(C)Cn1cc(C(=O)NC2CCS(=O)(=O)C2)c2ccccc2c1=O", "stereo": "stereo not drawn", "A": 1.98, "B": 8.196}
{"smiles": "CC(=O)N1CCN(C(=O)NCc2csc(Br)c2)CC1", "A": 1.149, "B": 6.526}
{"smiles": "Cc1ocnc1C(=O)N(C)[C@@H]1CC[C@@H](Oc2ccccc2)[C@@H]1O", "A": 2.571, "B": -11.56}
{"smiles": "COc1c(C2CCCN2C(=O)c2c(C)noc2C(C)C)c(C)nn1C", "stereo": "stereo not drawn", "A": 0.5714, "B": -20.22}
{"smiles": "CC(C)c1ccc2c(c1)C1(CC(=O)Nc3[nH]ncc31)C(=O)N2C", "stereo": "stereo not drawn", "A": 3.659, "B": 7.967}
{"smiles": "CNC(=O)C1CN(C)CCN(CCCOc2ccccc2F)C1", "stereo": "stereo not drawn", "A": 6.844, "B": -31.27}
{"smiles": "COc1ccc(-c2nc(CN3CCOCS3(=O)=O)c(C)o2)cc1", "A": 7.884, "B": 11.72}
{"smiles": "CN(C)C(=O)COCC1CN(Cc2ccoc2)Cc2ncn(C)c21", "stereo": "stereo not drawn", "A": 4.673, "B": -9.266}
{"smiles": "NC(=O)CC1CCN(C(=O)CCOc2ccc(Cl)cc2)CC1", "A": 1.901, "B": 5.182}
{"smiles": "OC[C@@H](O)CN(CCC(F)(F)F)c1ncc(Cl)cn1", "A": 2.521, "B": -1.014}
{"smiles": "Cc1cc(S(C)(=O)=O)c(C)c(S(=O)(=O)N2CCCC(C)C2)c1", "stereo": "stereo not drawn", "A": 0, "B": 4.991}
{"smiles": "Cc1nc(CN(C)Cc2nc(-c3sccc3C)oc2C)no1", "A": 3.352, "B": -9.298}
{"smiles": "Cc1nn(C)c(C)c1CC(=O)N1CCc2nnc(N(C)C)cc2C1", "A": 5.572, "B": -10.74}
{"smiles": "O=C(c1ccc2c(c1)OCCCO2)N1CCCC(n2ccnc2)C1", "stereo": "stereo not drawn", "A": -2.254, "B": -5.623}
{"smiles": "CN(C)C1CCCN(C(=O)NCCNC(=O)C2CCCCC2)C1", "stereo": "stereo not drawn", "A": -0.5405, "B": -1.207}
{"smiles": "Cn1ccnc1CCNS(=O)(=O)c1ccc(Br)cc1", "A": 5.435, "B": 5.877}
{"smiles": "CCN1CC(C(=O)NCCc2csc(-c3ccncc3)n2)CC1=O", "stereo": "stereo not drawn", "A": 0.4484, "B": -14.16}
{"smiles": "O=C(CCc1ccccc1)N[C@H]1CC[C@@]2(CCC(=O)N2)CC1", "A": 9.709, "B": -7.091}
{"smiles": "COCCOc1ncccc1NCc1nc2ccccc2n1C", "A": 9.453, "B": -3.318}
{"smiles": "CCCc1noc(C2CCN(C(=O)CCn3nc(C)cc3C)CC2)n1", "A": 2.609, "B": -4.752}
{"smiles": "O=C([C@H]1C[C@@H]2CCN(C3CCOCC3)C[C@H]2O1)N1CCCC1", "A": 0, "B": -11.67}
{"smiles": "CCc1noc(CC)c1CNC(=O)Nc1cccc(C(=O)N(C)C)c1", "A": -4.202, "B": -2.131}
{"smiles": "CCCN(C(=O)c1ccncc1)c1nc2c(s1)CCc1c-2cnn1C", "A": 25.53, "B": 16.35}
{"smiles": "CC(=O)N1CCN2C[C@H](CO)[C@@H](c3ccccc3)[C@H]2C1", "A": 3.371, "B": -5.668}
{"smiles": "Cn1ncc(C(=O)N2CCOCC2)c1Cl", "A": -0.8696, "B": 1.797}
{"smiles": "CCCNCc1ccc(-c2ccnc3[nH]ccc23)cc1", "A": 13.36, "B": -3.057}
{"smiles": "Cc1ccc(CN2CCC3(CC2)CC3CN(C)Cc2cccnc2)o1", "stereo": "stereo not drawn", "A": 7.527, "B": 5.572}
{"smiles": "CC(=O)N[C@H]1CCN(C(=O)c2cc(Cn3cnc4ccccc43)[nH]n2)C1", "A": 1.235, "B": -7.855}
{"smiles": "Cc1cccn2c(CNC(C)CO)cnc12", "stereo": "stereo not drawn", "A": 3.247, "B": 18.69}
{"smiles": "COC(=O)C1CCN(C(=O)Cn2ccc(-c3ccsc3)n2)CC1", "A": 4.762, "B": -2.111}
{"smiles": "FC(F)(F)c1ccc(-c2cc(NC3CCNCC3)nc3[nH]ccc23)nc1", "A": 38.38, "B": 12.82}
{"smiles": "COCCNc1nc2c(c(NCc3cnc(C)c(C)c3)n1)CCNCC2", "A": 12.5, "B": -3.506}
{"smiles": "Cc1nc(CNCc2c(C)nn(C)c2N2CCOCC2)cs1", "A": -1.141, "B": 9.973}
{"smiles": "O=C(NC1(C(=O)NC2CCCC2)CCCC1)c1ccc2[nH]ncc2c1", "A": 3.175, "B": 1.098}
{"smiles": "CC(C)c1nccn1CC1CCCN1Cc1nc2ccccc2n1C", "stereo": "stereo not drawn", "A": 5.455, "B": -9.824}
{"smiles": "CC(=O)NC[C@@]1(COc2cnccn2)C[C@@H](O)[C@@H](O)C1", "A": 3.483, "B": 0.3287}
{"smiles": "COc1cc(C(=O)NS(=O)(=O)c2ccc(C#N)cc2)ccc1C", "A": 0.578, "B": -26.71}

4 of the entries, repeated:

SMILES	A	B
COc1c(C2CCCN2C(=O)c2c(C)noc2C(C)C)c(C)nn1C (stereo not drawn)	0.5714%	-20.22%
NC(=O)CC1CCN(C(=O)CCOc2ccc(Cl)cc2)CC1	1.901%	5.182%
Cn1nc(C2CCN(C(=O)CN3CCCCC3)CC2)c2cccnc21	8.511%	3.794%
OC[C@@H](O)CN(CCC(F)(F)F)c1ncc(Cl)cn1	2.521%	-1.014%

Data taken from ChEMBL document CHEMBL3988442, “University of Dundee, Small-Polar-MMV Screening Library” (2021).